Measurements reported in PubChem BioAssay AID652243 (Drosophila RNAi Screening Center, 2013)

Assay: 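Fly regulators of androgen-dependent reporter output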 (primary screen)
Cell system: Drosophila S2R+ cells
Knock-down reagent: long dsRNA against Drosophila genes
Time to read-out: 72 h (48 h, then 24 h hormone)
Conditions: synthetic androgen R1881 at 10 nM for 24 h
Measured: 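Per-well raw luminescence of the androgen-driven firefly reporter and of the Renilla control, two replicates each, without normalisation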
Reading the numbers: firefly reporter light: higher = more light from androgen-responsive reporter; Renilla control light: higher = more constitutive control signal (cell number, transfection)
Call rule: 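Hit when the log firefly-to-Renilla ratio dropped or increased by a fixed fold versus the mean of GFP or LacZ controls across duplicate plates; lowering cut given as 1.5 and as 3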
Calls: active = hit: reporter lowered or raised; inactive = no hit
The screen tested about 24,000 reagents; shown is a random part of those that have a named target and a result. In the full data, 246 (1%) were called active. 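Plates not normalised; calls are printed but the firefly/Renilla ratio behind them is not deposited; fold cut for lowering reported inconsistently.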 Raw values are not corrected between plates. Not given: the amount of reagent.

Cul2 [DRSC03710] gave firefly reporter light, replicate 1 = 7.00e5; firefly reporter light, replicate 2 = 5.95e5; Renilla control light, replicate 1 = 1.81e6; Renilla control light, replicate 2 = 1.26e6; inactive.
After knock-down of CG8192 [DRSC24995], the screen gave firefly reporter light, replicate 1 = 1.19e6; firefly reporter light, replicate 2 = 1.08e6; Renilla control light, replicate 1 = 9.83e5; Renilla control light, replicate 2 = 9.47e5; inactive.
jumu [DRSC16651] gave firefly reporter light, replicate 1 = 1.31e5; firefly reporter light, replicate 2 = 1.27e5; Renilla control light, replicate 1 = 2.60e6; Renilla control light, replicate 2 = 2.33e6; inactive.
Silencing of RpL36A [DRSC03055] came out at: firefly reporter light, replicate 1 = 2.18e5; firefly reporter light, replicate 2 = 2.05e5; Renilla control light, replicate 1 = 1.16e6; Renilla control light, replicate 2 = 1.19e6; inactive.
RpL36A [DRSC27375] showed firefly reporter light, replicate 1 = 2.82e5; firefly reporter light, replicate 2 = 2.09e5; Renilla control light, replicate 1 = 3.09e5; Renilla control light, replicate 2 = 3.31e5; inactive.
Knock-down of frj [DRSC03250] resulted in: firefly reporter light, replicate 1 = 2.54e5; firefly reporter light, replicate 2 = 2.49e5; Renilla control light, replicate 1 = 5.09e5; Renilla control light, replicate 2 = 4.71e5; inactive.
With knock-down of CG4866 [DRSC06899] the results were firefly reporter light, replicate 1 = 84003; firefly reporter light, replicate 2 = 2.33e5; Renilla control light, replicate 1 = 9.83e5; Renilla control light, replicate 2 = 9.83e5; inactive.
Knock-down of Rpt5 [DRSC16842] came out at: firefly reporter light, replicate 1 = 20671; firefly reporter light, replicate 2 = 48033; Renilla control light, replicate 1 = 4.12e5; Renilla control light, replicate 2 = 4.22e5; inactive.
Depletion of Rpt5 [DRSC26269] resulted in: firefly reporter light, replicate 1 = 2.43e5; firefly reporter light, replicate 2 = 2.77e5; Renilla control light, replicate 1 = 3.77e5; Renilla control light, replicate 2 = 4.86e5; inactive.
Knock-down of CG14102 [DRSC10103] resulted in: firefly reporter light, replicate 1 = 1.51e5; firefly reporter light, replicate 2 = 1.78e5; Renilla control light, replicate 1 = 1.46e6; Renilla control light, replicate 2 = 1.68e6; inactive.
With knock-down of CG34027 [DRSC37751], the screen gave firefly reporter light, replicate 1 = 7.49e5; firefly reporter light, replicate 2 = 6.23e5; Renilla control light, replicate 1 = 1.90e6; Renilla control light, replicate 2 = 1.76e6; inactive.
For CG31198 [DRSC15891], the entry reads firefly reporter light, replicate 1 = 91854; firefly reporter light, replicate 2 = 98543; Renilla control light, replicate 1 = 6.34e5; Renilla control light, replicate 2 = 7.47e5; inactive.
After knock-down of Spn88Eb [DRSC16093] the results were firefly reporter light, replicate 1 = 65396; firefly reporter light, replicate 2 = 99040; Renilla control light, replicate 1 = 5.73e5; Renilla control light, replicate 2 = 1.00e6; inactive.
mtgo [DRSC02769] showed firefly reporter light, replicate 1 = 1.06e6; firefly reporter light, replicate 2 = 4.98e5; Renilla control light, replicate 1 = 2.03e6; Renilla control light, replicate 2 = 1.27e6; inactive.
mtgo [DRSC21392] gave firefly reporter light, replicate 1 = 6.80e5; firefly reporter light, replicate 2 = 6.13e5; Renilla control light, replicate 1 = 1.99e6; Renilla control light, replicate 2 = 1.81e6; inactive.
Knock-down of mtgo [DRSC21743] resulted in: firefly reporter light, replicate 1 = 5.01e5; firefly reporter light, replicate 2 = 3.93e5; Renilla control light, replicate 1 = 1.84e6; Renilla control light, replicate 2 = 2.08e6; inactive.
Silencing of mtgo [DRSC27702] resulted in: firefly reporter light, replicate 1 = 2.21e5; firefly reporter light, replicate 2 = 2.39e5; Renilla control light, replicate 1 = 3.56e5; Renilla control light, replicate 2 = 7.58e5; inactive.
Tsp97E [DRSC16019] scored firefly reporter light, replicate 1 = 64170; firefly reporter light, replicate 2 = 1.13e5; Renilla control light, replicate 1 = 6.06e5; Renilla control light, replicate 2 = 7.58e5; inactive.
Silencing of Tsp97E [DRSC28053] resulted in: firefly reporter light, replicate 1 = 3.78e5; firefly reporter light, replicate 2 = 4.40e5; Renilla control light, replicate 1 = 1.54e6; Renilla control light, replicate 2 = 1.44e6; inactive.
sut1 [DRSC07700] gave firefly reporter light, replicate 1 = 1.18e6; firefly reporter light, replicate 2 = 6.49e5; Renilla control light, replicate 1 = 1.35e6; Renilla control light, replicate 2 = 1.02e6; inactive.
Silencing of Obp50d [DRSC05483] gave: firefly reporter light, replicate 1 = 1.64e5; firefly reporter light, replicate 2 = 1.46e5; Renilla control light, replicate 1 = 3.76e5; Renilla control light, replicate 2 = 3.27e5; inactive.
